Laboratory results reported in the supplement of paper PMC3334620.
Over roughly 33,000 sequences, “E-score (-0.5 to 0.5)” has its median near -0.016; the highest 2% begin near 0.3. The list shows a part of the results.

molecular target: T1, Yer184c (UniProt P39961); test: PBM E-score (8-mer binding enrichment) (E-score (-0.5 to 0.5)); higher = stronger / more preferred TF binding; details: protein concentration: 100 nM; construct: GST-full length
T1 sequence: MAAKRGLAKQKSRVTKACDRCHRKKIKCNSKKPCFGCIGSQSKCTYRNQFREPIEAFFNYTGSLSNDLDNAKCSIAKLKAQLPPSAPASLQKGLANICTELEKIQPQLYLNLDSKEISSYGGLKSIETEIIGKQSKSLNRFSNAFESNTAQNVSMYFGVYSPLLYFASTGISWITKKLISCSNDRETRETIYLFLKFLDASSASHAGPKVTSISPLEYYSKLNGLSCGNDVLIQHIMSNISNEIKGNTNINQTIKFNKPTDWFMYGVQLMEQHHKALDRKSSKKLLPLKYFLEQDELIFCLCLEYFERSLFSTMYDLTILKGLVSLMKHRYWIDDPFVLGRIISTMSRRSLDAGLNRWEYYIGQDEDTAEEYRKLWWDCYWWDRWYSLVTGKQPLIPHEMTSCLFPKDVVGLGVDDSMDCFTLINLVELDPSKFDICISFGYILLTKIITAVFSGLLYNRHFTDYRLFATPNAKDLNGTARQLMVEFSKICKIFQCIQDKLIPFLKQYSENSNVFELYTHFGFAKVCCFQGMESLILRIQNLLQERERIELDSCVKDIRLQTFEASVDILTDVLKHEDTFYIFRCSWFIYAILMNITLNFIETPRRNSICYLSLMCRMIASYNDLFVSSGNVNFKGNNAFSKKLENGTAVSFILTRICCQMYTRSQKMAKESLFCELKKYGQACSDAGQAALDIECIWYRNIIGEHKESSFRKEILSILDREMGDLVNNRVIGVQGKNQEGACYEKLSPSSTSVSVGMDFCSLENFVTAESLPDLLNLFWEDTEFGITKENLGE
In short: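 The E-score, a modified Wilcoxon-Mann-Whitney statistic, was computed by the Universal PBM Analysis Suite for every ungapped eight-base word pooled with its reverse complement. Scans behind it were normalised with masliner after bound GST-tagged yeast transcription factors were detected with fluorescent anti-GST. The proteins, at about 100-200 nM, had been applied to universal all-10-mer Agilent arrays made double-stranded by primer extension.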

Row | Sequence | PBM E-score
1 | ATGCGCCC | -0.0509
2 | ATCGTTTA | 0.166
3 | CGTTGGGA | -0.167
4 | ATGAAGGG | -0.197
5 | GACAGTAA | -0.0124
6 | TGAATAAA | 0.0702
7 | CTACGGAG | 0.0895
8 | GCCAGACC | -0.0552
9 | CGGGATAG | 0.102
10 | CAAGCTAC | -0.0539
11 | AGGGCTTG | -0.126
12 | CGCCGAAG | 0.328
13 | ACCACTGG | -0.0163
14 | GCCCAGGC | -0.251
15 | ACTGCAAT | 0.135
16 | AGCAGCAG | -0.0629
17 | ACTCGCGA | 0.139
18 | GACGCGCC | -0.125
19 | CGACCACA | -0.136
20 | ACAATTCC | 0.0174
21 | ACAACGAA | 0.164
22 | GTGGGATA | -0.0235
23 | ATCAGTGG | -0.0823
24 | ACATTGGG | -0.175
25 | AGAGGGCC | -0.164

Row | Sequence | PBM E-score
26 | AAATTGGG | -0.0133
27 | ATTCTACA | 0.132
28 | TACTTAGA | -0.0915
29 | ACCAGGCA | -0.283
30 | CTAACGCC | -0.0485
31 | AATATGGC | -0.0156
32 | AGTGCACA | 0.0599
33 | CAAAATGC | 0.0794
34 | AGCCTGTC | -0.209
35 | AGGGTTAT | -0.187
36 | CCATGAGA | 0.0649
37 | GCTATGTA | -0.122
38 | ATGTTTTA | 0.00138
39 | AGCATCTG | -0.111
40 | TAACCTGA | -0.0232
41 | AGAGAGCC | -0.0767
42 | CTTTTATA | 0.131
43 | TACAACCA | 0.108
44 | ACGAATCC | 0.115
45 | AGCTCTCC | -0.134
46 | CCGCAGTC | -0.116
47 | CCTTACAG | -0.124
48 | ACGGACGA | 0.237
49 | TTGATCAA | 0.147
50 | CAGTAACA | 0.0633

Row | Sequence | PBM E-score
51 | CCAAGCCC | -0.296
52 | GTTGCGGA | 0.193
53 | CCTTTAGC | -0.0615
54 | CATACCGC | -0.0504
55 | AGCTCGTG | 0.117
56 | GCCTCCAC | -0.257
57 | ACCGATCC | 0.111
58 | CTGCACGA | -0.136
59 | AAACGTTT | 0.299
60 | TGGGGGAA | -0.368
61 | GTCACCAA | -0.141
62 | AATGGGGA | -0.168
63 | CCACGGTA | 0.104
64 | ACGCGCTG | -0.11
65 | GACACAAC | -0.0398
66 | GCATATGA | 0.0153
67 | AAACAGTA | 0.0452
68 | AATGGGCG | -0.185
69 | AAGAGTTA | -0.0159
70 | CGAGCCTA | -0.134
71 | GAAACCAA | 0.236
72 | AAGCGCGC | 0.147
73 | ACGTGCTG | -0.0775
74 | ATAGGGCC | -0.0824
75 | TCCTAGAA | 0.0667

Row | Sequence | PBM E-score
76 | CCGAGTTC | 0.233
77 | TCCGGGCA | 0.261
78 | CCTCGATC | -0.0397
79 | CGATACGC | -0.012
80 | AGTGTTCA | 0.0597
81 | CTGTGCCC | -0.106
82 | GAGGAGAC | -0.252
83 | ACCCGTCC | -0.149
84 | ATATGACC | -0.0398
85 | CTTCATGA | 0.0611
86 | ACGCACCC | -0.223
87 | ATCAGAAT | 0.0176
88 | CTCTGTAC | -0.0422
89 | CTACGTTC | -0.0346
90 | AGCCCGCC | -0.0365
91 | GAACGCTC | -0.239
92 | AGCAATCA | 0.0916
93 | GAAATACC | 0.18
94 | GAAGCCCC | -0.281
95 | AGGCAGGG | -0.255
96 | AGGAGAGG | -0.286
97 | CAGCGAGC | 0.102
98 | ATAGGAAT | -0.0438
99 | CAGCATGG | -0.157
100 | TCCCTCGA | -0.183

Row | Sequence | PBM E-score
101 | CGAACGCG | 0.0642
102 | GCAACTAA | 0.181
103 | CGTTTCGC | 0.118
104 | AGGCCTCA | -0.185
105 | CAAGAAGC | 0.118
106 | AGTAAACA | 0.0707
107 | GTCGTCTA | -0.108
108 | CCTTCATA | 0.0508
109 | GCCCCGCC | 0.0205
110 | ACTAACGA | 0.00902
111 | CGTCGTGA | -0.152
112 | AGGGGACT | -0.17
113 | GTGCGCAA | -0.0502
114 | GAGTTAGC | -0.0328
115 | ACCTTTGG | -0.372
116 | ATTTTTGG | -0.0313
117 | CACACCCA | -0.135
118 | ACACTAAC | 0.00821
119 | ACTAGTGC | 0.0751
120 | CGATAGAC | -0.0952
121 | GTCTCCAA | 0.0462
122 | CCGACGTA | -0.0133
123 | GTACTAAA | 0.162
124 | CCTCCTAC | -0.0884
125 | CCCCGGAC | 0.0445

Exported comma-delimited: entries from further up
Row,Sequence,PBM E-score
109,GCCCCGCC,0.0205
110,ACTAACGA,0.00902

Later entries.

Row | Sequence | PBM E-score
126 | CACCCGGA | 0.237
127 | CTTACAGC | -0.0235
128 | CCACTCAG | -0.158
129 | CAACGGAG | 0.0267
130 | CTTACTAC | -0.0588
131 | ATCGCCCC | -0.235
132 | CAGGACTG | -0.223
133 | GGAGGGAC | -0.0771
134 | CGCGTACA | -0.0798
135 | AGTGCGTC | -0.162
136 | GACCATAA | 0.0623
137 | TAAAGGAA | -0.00126
138 | CGTAGACC | -0.171
139 | GCTCACGA | -0.15
140 | GATTGTCC | 0.156
141 | CCGCCGGA | 0.316
142 | AACCAAGC | -0.0189
143 | ATGCGTGA | 0.0231
144 | ATGCTGTC | -0.109
145 | AACCACGC | -0.0516
146 | ACAGTTAC | 0.027
147 | CTATGGTA | -0.0782
148 | CGGTCGGA | 0.193
149 | ACAATATC | 0.0651
150 | CCTGCACG | -0.153

Some values from the results shown.
Entry for ATCGCCCC under PBM E-score: -0.235
Entry for GATTGTCC under PBM E-score: 0.156
Entry for TAAAGGAA under PBM E-score: -0.00126
Entry for GGAGGGAC under PBM E-score: -0.0771
Entry for CCGCCGGA under PBM E-score: 0.316
Entry for ATGCTGTC under PBM E-score: -0.109
Entry for CACCCGGA under PBM E-score: 0.237

Going on with the list:

Row | Sequence | PBM E-score
151 | AAGGTAGC | -0.154
152 | ATGCTACA | -0.0714
153 | CTATTGAC | -0.0106
154 | CGTAAGAA | 0.111
155 | AGAGCTGC | -0.203
156 | AGTATAGC | -0.0324
157 | GATAATCC | 0.0339
158 | AGCGTTCG | -0.0742
159 | ATAGGGCG | -0.15
160 | ATAAGCCA | -0.0435
161 | CGCCCACA | -0.0633
162 | ACAGGTGG | -0.186
163 | AAACTCGA | 0.0301
164 | CTGCTCGA | -0.179
165 | ACCATATG | -0.282
166 | TAGCCCCA | -0.287
167 | CAGAAGAC | -0.0508
168 | CGCGTGCC | -0.102
169 | AGGTCCAG | -0.00849
170 | CCCCCTCC | -0.297
171 | CTAAGGAA | 0.152
172 | GTGAGGCA | -0.178
